Reference: paper PMC6925144, “A prospective compound screening contest identified broader inhibitors for Sirtuin 1” (Scientific Reports, 2019)
The full ranking holds about 3,200 compounds; the median of “TSA(without NAD+) / Primary screening (TSA) / delta Tm (K)” is about -0.07, and the highest 2% start at about 0.37. The list shows a part of the results.

Sequences of proteins named here, by UniProt entry; tags and fusion partners are left off. Residues count along the entry.
UniProt Q96EB6, 2-747 limits assumed: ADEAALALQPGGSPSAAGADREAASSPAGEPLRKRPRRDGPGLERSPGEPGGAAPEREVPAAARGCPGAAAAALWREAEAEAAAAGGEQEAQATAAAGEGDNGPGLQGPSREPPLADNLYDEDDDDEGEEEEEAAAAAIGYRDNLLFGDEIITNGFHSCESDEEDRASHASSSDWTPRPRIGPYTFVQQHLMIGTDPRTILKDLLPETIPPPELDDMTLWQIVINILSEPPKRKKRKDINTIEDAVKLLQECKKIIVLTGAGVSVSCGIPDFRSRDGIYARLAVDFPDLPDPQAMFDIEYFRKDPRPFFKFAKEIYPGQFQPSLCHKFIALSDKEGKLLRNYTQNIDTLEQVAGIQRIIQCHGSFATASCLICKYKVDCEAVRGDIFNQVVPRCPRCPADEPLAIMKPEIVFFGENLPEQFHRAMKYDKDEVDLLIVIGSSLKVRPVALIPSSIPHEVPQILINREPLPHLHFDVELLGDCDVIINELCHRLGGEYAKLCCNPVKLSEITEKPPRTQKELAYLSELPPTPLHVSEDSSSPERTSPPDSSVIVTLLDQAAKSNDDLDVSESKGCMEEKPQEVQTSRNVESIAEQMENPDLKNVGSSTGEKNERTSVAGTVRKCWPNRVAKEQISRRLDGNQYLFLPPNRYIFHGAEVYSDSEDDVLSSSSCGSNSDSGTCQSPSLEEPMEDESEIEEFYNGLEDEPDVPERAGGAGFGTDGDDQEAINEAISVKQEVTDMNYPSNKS

What follows are compounds tested against NAD-dependent deacetylase Sirtuin 1 (human, UniProt Q96EB6) (assay: primary screen, delta tm). Settings: 10 µM.
Design: single well (n = 1)
Procedure, shortened: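 Thermal shift of Sirtuin 1 measured without NAD+, compound at 10 µM (n = 1); value is ΔTm, with hits defined as ΔTm > 0.45 K or < −1.5 K. Hits retested at 5, 10, 20 µM (n = 4) and counterscreened on bovine carbonic anhydrase and ABL1 SH2 domain.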

Structure (SMILES)	TSA(without NAD+) / Primary screening (TSA) / delta Tm (K)
CCc1nn2c(=O)cc(CNc3ccc(F)cc3Cl)nc2s1	0.27 K
C=CCN(c1ccc(Cl)cc1)S(=O)(=O)c1cccc(C(=O)Nc2ccc(C(N)=O)cc2)c1	-0.04 K
CCCOC(=O)c1ccc(NC(=O)c2cccc(S(=O)(=O)N(C)c3ccc(OC)cc3)c2)cc1	0.35 K
COc1cccc(CSC(C)C(N)=O)c1 (stereo not drawn)	0.07 K
NC(=O)CC1CCN(C(=O)c2ccn(-c3cccc(F)c3)n2)CC1	-0.12 K
C#CCNC(=O)c1ccc2[nH]c3c(c2c1)CCCC3	-0.32 K
Cc1[nH]c(-c2cccc(Cl)c2)nc1C(=O)Nc1ccc(F)c(C(N)=O)c1	-0.12 K
Oc1ccc(N2CCN(c3ncnc4sc5c(c34)CCC5)CC2)cc1	-0.33 K
Cc1cc(C)c2cc(CN3CCC(C(N)=O)CC3)[nH]c2c1	-0.05 K
O=C(O)CSc1ccc2c3c(cccc13)C(=O)c1ccccc1-2	-0.33 K
CCOC(=O)C(C)N1CCN(S(=O)(=O)c2cc(C(N)=O)n(C)c2)CC1 (stereo not drawn)	-0.07 K
CCN(C(=O)c1ccc(Br)cc1F)c1ccncc1	-0.03 K
NC(=O)c1cc(-c2ccccc2)nc2ccccc12	-0.02 K
CCc1cc2c(N3CCC(CCN4CCN(C)CC4)CC3)ncnc2s1	-0.22 K
CN(c1cccc(Cl)c1)S(=O)(=O)c1cccc(C(=O)Nc2ccc(C(N)=O)cc2)c1	0.08 K
Cc1ccc(N)c(OCC(F)(F)F)c1	-0.02 K
CC(CC(=O)N1CCN(c2ccc3nccnc3n2)CC1)c1ccccc1 (stereo not drawn)	-0.12 K
Cc1ccc(-n2c(C)c(C)c3c(N)ncnc32)cc1	0.02 K
C[C@H](N)C(N)=O	0.09 K
CC(C)(C)c1cc(NC(=O)CSc2nnc(NCc3ccco3)s2)on1	-0.17 K
COC(=O)C[C@H](N)C(=O)O	0.08 K
COc1ccc(C(=O)C2=C(O)C(=O)N(CCCN3CCOCC3)C2c2cccs2)cc1C (stereo not drawn)	-0.13 K
COc1cc(CNC(=O)C2(C)CCOCC2)c2ccccc2n1	0.03 K
Cn1c(=O)[nH]c2ccc(C(=O)O)cc21	0.17 K

Structure (SMILES)	TSA(without NAD+) / Primary screening (TSA) / delta Tm (K)
COc1ccc(CNCc2ccc(N3CCCC3=O)cc2)c(OC)c1	-0.05 K
Cc1ccc(C(=O)C2=C(O)C(=O)N(CCCN3CCOCC3)C2c2cccc([N+](=O)[O-])c2)cc1 (stereo not drawn)	-0.13 K
Cc1ccc(N(C)S(=O)(=O)c2cccc(C(=O)OCc3ccc(Cl)cc3)c2)cc1	0.06 K
O=C(CSc1nnc(Nc2cccc(F)c2)s1)NCc1ccco1	-0.03 K
Cc1nc(-c2ccc(CCNC(=O)c3ccc(NC(=O)c4cccs4)cc3)s2)cs1	0.63 K
OC(CNc1ncccn1)c1ccc(Cl)cc1 (stereo not drawn)	-0.31 K
Cc1ccc(C(=O)OCC(=O)Nc2c(C)n(C)n(-c3ccccc3)c2=O)cc1O	-0.17 K
Cc1cccc(-c2cccc(CNC(=O)c3cccnc3S)c2)c1	0.18 K
Cc1nn(Cc2ccc(Cl)cc2)c(Cl)c1-c1nc(-c2ccccc2)c(-c2ccccc2)[nH]1	-0.03 K
Cc1nc(NCCc2ccccc2)sc1C(=O)O	-0.03 K
C=C(CC)CN	-0.12 K
NCCCN	-0.21 K
Nc1ccnn1Cc1ccc(Cl)cc1Cl	-0.15 K
O=C1NC(=S)NC(=O)C1=CNc1ccc(Cl)c(Cl)c1	-0.18 K
COc1ccc(OC)c(NCCn2c(C)cn3c4c(=O)[nH]c(=O)n(C)c4nc23)c1	-0.54 K
Oc1c(Br)cc2oc3c(c2c1/C=N/c1cccc2ccccc12)CCCC3	0.07 K
O=Cc1cn(CCC(=O)O)nc1-c1ccccc1	-0.08 K
COc1cc2c(cc1OC)CN(C(=O)c1cccc(S(=O)(=O)Nc3ccc(F)cc3)c1)CC2	-0.04 K
NC(=O)c1ccc(CNC2CCCCCC2)o1	-0.05 K
CN(c1ccccc1)S(=O)(=O)c1cccc(C(=O)NCCCOCCc2ccccc2)c1	-0.18 K
CCc1ccc(C(NCC(=O)Nc2oc(C)c3c(C)n[nH]c(=O)c23)C(C)C)cc1 (stereo not drawn)	-0.18 K
O=C(O)C1CC(=O)N(c2ccc(S(=O)(=O)Nc3cccc([N+](=O)[O-])c3)cc2)C1 (stereo not drawn)	-0.18 K
CN1C(=O)c2oc3ccccc3c(=O)c2C1c1ccccc1F (stereo not drawn)	-0.13 K
O=Cc1c[nH]nc1-c1ccc2c(c1)OCO2	-0.12 K

3 compounds picked at random from the list so far:
Structure (SMILES)	TSA(without NAD+) / Primary screening (TSA) / delta Tm (K)
C[C@H](N)C(N)=O	0.09 K
NCCCN	-0.21 K
COc1ccc(C(=O)C2=C(O)C(=O)N(CCCN3CCOCC3)C2c2cccs2)cc1C (stereo not drawn)	-0.13 K
